Results are given in words; binding and its absence hold for the method and conditions named. Binding seen in cells or lysates may run through a third protein. These calls come from enrichment with a bait or labelling near it, and not all partners need be listed.
Target: T1, THY-1 cell surface antigen (CD90), endogenous in MRC-5 cells (human (endogenous in MRC-5)) (UniProt P04216)
T1 sequence (chain, C-terminal a.a. 132-162 replaced with a GPI anchor): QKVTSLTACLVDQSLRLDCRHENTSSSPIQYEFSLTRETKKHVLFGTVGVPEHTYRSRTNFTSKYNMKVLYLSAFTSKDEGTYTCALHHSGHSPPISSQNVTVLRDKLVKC
Experiment: affinity purification with mass spectrometry; anti-THY-1 antibody and protein A-Sepharose, 4°C overnight, on lysates of MRC-5 cells infected with HCMV Towne (25 mM Tris, 15 mM NaCl, 0.1% NP40 with or without 5 mM EDTA); bands absent with isotype control antibody and in uninfected cells were excised from SDS-PAGE and identified by mass spectrometry

Amino acid sequences for entries named in this document (tags omitted). Residues count along the entry.
UniProt P17176, residues 30-742: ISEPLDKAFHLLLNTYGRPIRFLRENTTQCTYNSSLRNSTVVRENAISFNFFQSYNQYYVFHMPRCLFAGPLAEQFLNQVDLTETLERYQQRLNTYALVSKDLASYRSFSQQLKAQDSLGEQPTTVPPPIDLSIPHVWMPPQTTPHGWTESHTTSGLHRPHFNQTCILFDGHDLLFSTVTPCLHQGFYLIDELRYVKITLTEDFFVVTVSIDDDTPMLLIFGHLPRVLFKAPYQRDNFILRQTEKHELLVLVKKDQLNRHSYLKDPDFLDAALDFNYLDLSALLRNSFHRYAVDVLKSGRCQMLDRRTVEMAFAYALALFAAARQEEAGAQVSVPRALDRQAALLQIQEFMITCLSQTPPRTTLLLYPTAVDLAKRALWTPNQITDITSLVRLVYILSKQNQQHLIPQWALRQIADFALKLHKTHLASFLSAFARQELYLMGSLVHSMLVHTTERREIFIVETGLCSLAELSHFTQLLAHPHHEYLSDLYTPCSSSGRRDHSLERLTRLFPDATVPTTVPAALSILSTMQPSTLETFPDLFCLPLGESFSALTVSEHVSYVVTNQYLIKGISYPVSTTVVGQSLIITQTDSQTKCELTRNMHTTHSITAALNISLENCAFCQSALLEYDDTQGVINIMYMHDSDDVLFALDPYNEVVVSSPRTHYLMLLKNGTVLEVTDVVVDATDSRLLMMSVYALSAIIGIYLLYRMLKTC
UniProt P13201, residues 23-907: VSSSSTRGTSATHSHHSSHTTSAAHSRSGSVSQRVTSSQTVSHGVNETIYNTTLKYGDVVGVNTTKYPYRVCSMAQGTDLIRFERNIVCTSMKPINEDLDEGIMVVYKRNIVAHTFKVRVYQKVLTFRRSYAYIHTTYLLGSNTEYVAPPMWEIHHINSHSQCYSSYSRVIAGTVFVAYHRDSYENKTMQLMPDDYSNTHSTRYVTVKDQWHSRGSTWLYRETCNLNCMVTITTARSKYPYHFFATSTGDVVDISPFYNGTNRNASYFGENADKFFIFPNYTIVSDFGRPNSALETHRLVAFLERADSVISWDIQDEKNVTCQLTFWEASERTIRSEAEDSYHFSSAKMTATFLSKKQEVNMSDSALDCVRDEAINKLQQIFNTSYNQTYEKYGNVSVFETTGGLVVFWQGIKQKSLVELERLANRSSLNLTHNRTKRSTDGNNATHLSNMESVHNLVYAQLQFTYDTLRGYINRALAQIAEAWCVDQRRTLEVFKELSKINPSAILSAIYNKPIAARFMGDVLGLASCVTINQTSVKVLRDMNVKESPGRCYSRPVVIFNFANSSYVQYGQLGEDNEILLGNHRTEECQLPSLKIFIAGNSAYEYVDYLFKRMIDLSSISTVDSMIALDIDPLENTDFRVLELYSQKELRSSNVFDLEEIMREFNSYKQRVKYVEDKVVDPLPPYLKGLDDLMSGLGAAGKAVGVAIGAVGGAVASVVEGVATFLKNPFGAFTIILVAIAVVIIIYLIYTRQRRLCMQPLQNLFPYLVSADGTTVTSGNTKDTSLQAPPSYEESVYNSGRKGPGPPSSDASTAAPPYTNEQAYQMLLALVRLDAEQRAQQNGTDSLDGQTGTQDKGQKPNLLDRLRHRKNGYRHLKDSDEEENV

“HCMV glycoprotein H (gH), from MRC-5 cells infected with HCMV Towne (from UniProt P17176 30-742)” was tested, and the binding was “binds”.
With “HCMV glycoprotein B (gB), from MRC-5 cells infected with HCMV Towne (from UniProt P13201 23-907)” the binding was “binds”.

Source: publication PMC4492587
